# Reference: US6165717A, “Method of synthesizing diverse collections of oligomers” (Affymax Technologies N.V., priority 1998, dated 2000)
# Part of at least one peptide drawing is inferred or uncertain, most often the ends. Where a SMILES comes first, the peptide text is derived from it.
# Biological target: Monoclonal antibody 3E7
# Assay: Solution binding assays of chemically synthesized peptides with monoclonal antibody 3E7
# Conditions: monoclonal antibody 3E7 (raised against b-endorphin), read-out: equilibrium binding constants (Kd)
row,Compound,Kd [µM]
1,CC(C)C[C@H](NC(=O)[C@H](Cc1ccccc1)NC(=O)CNC(=O)CNC(=O)[C@@H]1CCCN1)C(=O)O [PGGFL] (H-PGGFL-OH),> 1000
2,CC(C)C[C@H](NC(=O)[C@H](Cc1ccccc1)NC(=O)CNC(=O)[C@@H]1CCCN1C(=O)[C@@H]1CCCN1)C(=O)O [PPGFL] (H-PPGFL-OH),> 1000
3,CC(C)C[C@H](NC(=O)[C@H](Cc1ccccc1)NC(=O)CNC(=O)[C@@H]1CCCN1C(=O)[C@@H](N)Cc1ccc(O)cc1)C(=O)O [YPGFL] (H-YPGFL-OH),> 1000
